Measured values: publication PMC12222027, “In situ structure of a bacterial flagellar motor at subnanometre resolution reveals adaptations for increased torque” (Nature Microbiology, 2025)

Amino acid sequences for entries named in this document (tags omitted). A change or cut given only in a name is not applied to a line headed by its entry.
UniProt Q0PA06: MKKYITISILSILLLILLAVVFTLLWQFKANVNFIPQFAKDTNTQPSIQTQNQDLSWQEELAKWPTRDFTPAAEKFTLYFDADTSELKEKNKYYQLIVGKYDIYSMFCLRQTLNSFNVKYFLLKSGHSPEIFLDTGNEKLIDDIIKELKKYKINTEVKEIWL

Biological target: T1, PflB-3×FLAG (C. jejuni NCTC11168, strain CSS-5716) (C. jejuni NCTC11168)
T1 sequence: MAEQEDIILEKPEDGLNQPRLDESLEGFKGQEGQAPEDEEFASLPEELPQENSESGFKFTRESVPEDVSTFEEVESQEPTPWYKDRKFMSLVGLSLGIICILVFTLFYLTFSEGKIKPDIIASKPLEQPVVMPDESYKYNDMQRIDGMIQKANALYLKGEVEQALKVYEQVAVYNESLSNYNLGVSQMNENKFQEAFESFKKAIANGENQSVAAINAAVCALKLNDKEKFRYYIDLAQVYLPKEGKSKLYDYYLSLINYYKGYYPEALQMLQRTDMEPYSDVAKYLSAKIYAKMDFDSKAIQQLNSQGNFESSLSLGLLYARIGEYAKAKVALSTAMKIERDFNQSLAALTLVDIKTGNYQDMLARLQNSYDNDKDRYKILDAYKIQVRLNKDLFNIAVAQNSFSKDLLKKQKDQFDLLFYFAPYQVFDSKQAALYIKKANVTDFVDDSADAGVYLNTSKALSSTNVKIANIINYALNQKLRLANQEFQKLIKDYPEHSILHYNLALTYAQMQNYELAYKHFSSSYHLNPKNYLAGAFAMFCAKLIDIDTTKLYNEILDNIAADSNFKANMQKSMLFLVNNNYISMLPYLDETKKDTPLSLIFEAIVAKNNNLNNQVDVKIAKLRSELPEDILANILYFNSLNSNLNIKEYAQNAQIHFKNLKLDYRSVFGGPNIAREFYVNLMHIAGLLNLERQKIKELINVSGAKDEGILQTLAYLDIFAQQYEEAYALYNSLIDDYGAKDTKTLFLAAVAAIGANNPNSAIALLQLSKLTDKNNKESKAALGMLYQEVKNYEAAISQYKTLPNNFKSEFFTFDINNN
Assay: co-IP; chromosomally tagged C. jejuni NCTC11168 strains; cleared lysates with anti-FLAG antibody and Protein A-Sepharose, 4 °C, buffer A (20 mM Tris-HCl pH 8, 1 mM MgCl2, 150 mM KCl, 1 mM dithiothreitol); western blot with FlgP antisera or anti-GFP

Substance: PflD-sfGFP (Cj0892c, C. jejuni NCTC11168) (from UniProt Q0PA06)
- binding: binds

No constants are given. Whether binding was seen depends on the method and setting. Binding seen in cells or lysates may run through a third protein. Binding can be weak; no strength is given. Sequences can lack the tags named with a protein.
